Structures can show the parent of a compound that is named as a salt. The list shows a part of the results. Single values are uncertain, as repeats are few or missing.
The compounds below were run on Echinococcus multilocularis metacestodes (assay: vesicle damage (PGI release) relative to positive control DB1127 at 20 µM, DMSO subtracted; higher = more parasite damage). Settings: treatment time 5 days.
Protocol: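 In vitro-cultured E. multilocularis metacestode vesicles (isolate H95, 2-4 mm) were treated in singlets with each drug of the Selleck FDA-approved library (426 drugs) at 20 µM for 5 days at 37°C. Damage was read as phosphoglucose isomerase (PGI) release into the medium, measured as the increase in absorbance at 340 nm. Activity was expressed as % of the positive control DB1127 (20 µM) after subtracting the DMSO control; a hit was defined as ≥50% of DB1127.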
In the case of `C[C@@H](CN1CC(=O)NC(=O)C1)N1CC(=O)NC(=O)C1` [Dexrazoxane Hydrochloride], the vesicle damage is reported as -0.627%. `Nc1nc(=O)[nH]cc1F` [Flucytosine] was tested, and the vesicle damage was -3.21%. `CCC(C)(C)c1ccc(CC(C)CN2C[C@@H](C)O[C@@H](C)C2)cc1` (stereo not given in full) [Amorolfine Hydrochloride] was tested, and the vesicle damage was 2.25%. For `C[C@H](CCC(=O)O)[C@H]1CC[C@H]2[C@@H]3[C@H](O)C[C@@H]4C[C@H](O)CC[C@]4(C)[C@H]3CC[C@]12C` [Chenodeoxycholic acid], the vesicle damage was -13.1%. In the case of `CCOC(=O)C(C)(C)Oc1ccc(Cl)cc1` [Clofibrate], the vesicle damage is reported as -13.9%. Work on `CN(C)c1nc(N(C)C)nc(N(C)C)n1` [Altretamine] yielded a vesicle damage of 0.123%. In the case of `CNC[C@@H](O)c1ccc(O)c(O)c1` [L-Adrenaline], the vesicle damage is reported as 0.392%. In the case of `CCCCCCCCCC(=O)N[C@@H](Cc1c[nH]c2ccccc12)C(=O)N[C@H](CC(N)=O)C(=O)N[C@@H](CC(=O)O)C(=O)N[C@@H]1C(=O)NCC(=O)N[C@@H](CCCN)C(=O)N[C@@H](CC(=O)O)C(=O)N[C@H](C)C(=O)N[C@@H](CC(=O)O)C(=O)NCC(=O)N[C@H](CO)C(=O)N[C@@H]([C@H](C)CC(=O)O)C(=O)N[C@@H](CC(=O)c2ccccc2N)C(=O)O[C@@H]1C` [Daptomycin], the vesicle damage is reported as -4.85%. Work on `CCCCC1=NC2(CCCC2)C(=O)N1Cc1ccc(-c2ccccc2-c2nnn[nH]2)cc1` [Irbesartan] yielded a vesicle damage of 8.13%. In the case of `Cc1cccc(Nc2ccncc2S(=O)(=O)NC(=O)NC(C)C)c1` [Torsemide], the vesicle damage is reported as -2.92%. Work on `Cc1oncc1C(=O)Nc1ccc(C(F)(F)F)cc1` [Leflunomide] yielded a vesicle damage of 0.295%. For `CC(c1cc2ccccc2s1)N(O)C(N)=O` (stereo not given) [Zileuton], the vesicle damage was -2.85%. For `CC(=O)[C@H]1CC[C@H]2[C@@H]3CCC4=CC(=O)CC[C@]4(C)[C@H]3CC[C@]12C` [Progesterone], the vesicle damage was -3.19%. Work on `CCCCCCCCCCC[C@@H](C[C@@H]1OC(=O)[C@H]1CCCCCC)OC(=O)[C@H](CC(C)C)NC=O` [Orlistat] yielded a vesicle damage of -1.82%. `CN(CCOc1ccc(CC2SC(=O)NC2=O)cc1)c1ccccn1` (stereo not given) [Rosiglitazone maleate] showed a vesicle damage of 1.05%. Compound `CNC(=O)c1cc(Oc2ccc(NC(=O)Nc3ccc(Cl)c(C(F)(F)F)c3)cc2)ccn1` [Sorafenib Tosylate] has a vesicle damage of 139%. In the case of `CN(C)[C@@H]1C(O)=C(C(N)=O)C(=O)[C@@]2(O)C(O)=C3C(=O)c4c(O)cccc4[C@@](C)(O)[C@H]3[C@H](O)[C@@H]12` [Oxytetracycline], the vesicle damage is reported as -8.74%. Compound `C#C[C@]1(O)CC[C@H]2[C@@H]3CCc4cc(O)ccc4[C@H]3CC[C@@]21C` [Ethinyl estradiol] has a vesicle damage of 0.73%. `NC12CC3CC(CC(C3)C1)C2` [Amantadine hydrochloride] gave a vesicle damage of 0.831%. Compound `COC(=O)[C@H]1[C@H]2C[C@@H]3c4[nH]c5cc(OC)ccc5c4CCN3C[C@H]2C[C@@H](OC(=O)c2cc(OC)c(OC)c(OC)c2)[C@@H]1OC` [Reserpine] has a vesicle damage of 0.83%. `O=S(=O)(O)CCS` [Mesna] gave a vesicle damage of -11.9%. Work on `C[C@H]1C[C@H]2[C@@H]3CCC4=CC(=O)C=C[C@]4(C)[C@H]3C(=O)C[C@]2(C)[C@@]1(O)C(=O)CO` [Betapar] yielded a vesicle damage of -0.474%. In the case of `Nc1nc(=O)n([C@@H]2CS[C@H](CO)O2)cc1F` [Emtricitabine], the vesicle damage is reported as -3.96%. For `O=C(O)C[C@H](O)C[C@H](O)/C=C/c1c(C2CC2)nc2ccccc2c1-c1ccc(F)cc1` [Pitavastatin calcium], the vesicle damage was 9.79%. Compound `CC1(C)O[C@@H]2C[C@H]3[C@@H]4CCC5=CC(=O)C=C[C@]5(C)[C@@]4(F)[C@@H](O)C[C@]3(C)[C@]2(C(=O)CO)O1` [Triamcinolone acetonide] has a vesicle damage of -2.46%. `Oc1ccc(OCc2ccccc2)cc1` [Monobenzone] showed a vesicle damage of -1.09%. In the case of `CN1CC(=O)N2[C@H](c3ccc4c(c3)OCO4)c3[nH]c4ccccc4c3C[C@@H]2C1=O` [Tadalafil], the vesicle damage is reported as 2.67%. `COc1cc2c(cc1OC)C(=O)C(CC1CCN(Cc3ccccc3)CC1)C2` (stereo not given) [Donepezil hydrochloride] was tested, and the vesicle damage was 2.56%. In the case of `CC1=C(/C=C/C(C)=C/C=C/C(C)=C/C(=O)O)C(C)(C)CCC1` [Tretinoin], the vesicle damage is reported as -0.444%. With `S=c1[nH]cnc2nc[nH]c12` [Mercaptopurine] the vesicle damage was 0.998%. `CC[C@]1(O)C[C@H]2CN(CCc3c([nH]c4ccccc34)[C@@](C(=O)OC)(c3cc4c(cc3OC)N(C=O)[C@H]3[C@@](O)(C(=O)OC)[C@H](OC(C)=O)[C@]5(CC)C=CCN6CC[C@]43[C@@H]65)C2)C1` [Vincristine Sulfate] was tested, and the vesicle damage was 1.82%. Work on `CN(C)C(=N)NC(=N)N` [Metformin hydrochloride] yielded a vesicle damage of -9.38%. Work on `C[N+]1(C)[C@@H]2C[C@@H](OC(=O)C(O)(c3cccs3)c3cccs3)C[C@H]1[C@@H]1O[C@@H]12` [Tiotropium Bromide hydrate] yielded a vesicle damage of 0.0453%. With `CCN(CC)C(=S)SSC(=S)N(CC)CC` [Disulfiram] the vesicle damage was -1.51%. Work on `Cc1ccc(NC(=O)c2ccc(CN3CCN(C)CC3)cc2)cc1Nc1nc(-c2cccnc2)cs1` [Masitinib] yielded a vesicle damage of -3.53%. Work on `CC(C)NCC(O)c1ccc(O)c(O)c1` (stereo not given) [Isoprenaline hydrochloride] yielded a vesicle damage of -0.181%. `COc1c(N2C[C@@H]3CCCN[C@@H]3C2)c(F)cc2c(=O)c(C(=O)O)cn(C3CC3)c12` [Moxifloxacin] was tested, and the vesicle damage was 1.58%. Work on `NNc1nncc2ccccc12` [Hydralazine hydrochloride] yielded a vesicle damage of 3.11%. For `O=C1N=C(O)NC1(c1ccccc1)c1ccccc1` [Phenytoin sodium], the vesicle damage was 4.93%. In the case of `C[C@H](N[C@@H](CCc1ccccc1)C(=O)O)C(=O)N1CCC[C@H]1C(=O)O` [Enalaprilat dihydrate], the vesicle damage is reported as -2.58%.
